Laboratory results: PubChem BioAssay AID652272 (Drosophila RNAi Screening Center, 2013)

Aim: 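Genes whose knock-down decreases or increases Hedgehog reporter output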 (primary screen)
Cell system: Drosophila clone 8 (Cl8) cells
Knock-down reagent: long dsRNA against Drosophila genes
Measurement: 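Firefly light from a Hedgehog-responsive ptc promoter reporter and Renilla reference light, both read on a plate reader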
Scale: firefly Hh reporter signal: higher = more ptc reporter light; Renilla reference signal: higher = more Renilla control light
Active means: 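Hit when the z-score averaged over two replicates is under -2 or over +3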
Meaning of the calls: active = hit: reporter lowered or raised; inactive = not a hit
In all, the deposit lists about 21,000 reagents; this is an unselected part of those with a known target gene and a result. Of all reagents, 503 (2.4%) got an active call. 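Raw plate light values, not normalised; calls rest on replicate z-scores that were not deposited; hits include reporter decreases as well as increases.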 Reagents against one gene are numbered here. A plus sign joins genes that one reagent is predicted to hit. The record does not give: the amount of reagent, the time to read-out.

| Target gene | dsRNA no. | firefly Hh reporter signal, replicate 1 | firefly Hh reporter signal, replicate 2 | firefly Hh reporter signal, replicate 3 | Renilla reference signal, replicate 1 | Renilla reference signal, replicate 2 | outcome |
| --- | --- | --- | --- | --- | --- | --- | --- |
| crim (crimpled) | 1 | 73108 | 67702 | – | 3079 | 3079 | inactive |
| CCKLR-17D3 (Cholecystokinin-like receptor at 17D3) | 1 | 1.10e5 | 2.41e5 | – | 1584 | 11597 | inactive |
| CCKLR-17D3 (Cholecystokinin-like receptor at 17D3) | 2 | 59912 | 1.59e5 | – | 880 | 6625 | inactive |
| Adat1 (Adenosine deaminase, tRNA-specific 1) | 1 | 1.03e5 | 46387 | – | 2711 | 3979 | inactive |
| dgt6 (dim gamma-tubulin 6) | 1 | 76932 | 66897 | – | 1664 | 2034 | inactive |
| CG16743 | 1 | 1.19e5 | 36678 | – | 3483 | 3744 | inactive |
| CG17712 | 1 | 1.47e5 | 98291 | – | 5864 | 3991 | inactive |
| park (parkin) | 1 | 89466 | 71334 | – | 3616 | 3019 | inactive |
| Impbeta11 + asRNA:CR43429 | 1 | 75091 | 32348 | – | 2345 | 1504 | inactive |
| CG31678 | 1 | 1.01e5 | 82460 | – | 4080 | 3035 | inactive |
| CG31678 | 2 | 80288 | 48136 | – | 2321 | 5216 | inactive |
| Jhbp7 (Juvenile hormone binding protein 7) | 1 | 5.92e5 | 1.04e5 | – | 30551 | 7845 | inactive |
| CG4892 | 1 | 1.47e5 | 1.24e5 | – | 3737 | 7522 | inactive |
| PheRS-m (Phenylalanyl-tRNA synthetase, mitochondrial) | 1 | 1.31e5 | 91457 | – | 5921 | 3389 | inactive |
| Takl2 (Tak1-like 2) | 1 | 6.14e5 | 1.05e5 | – | 30163 | 3257 | inactive |
| PolH (DNA polymerase eta) | 1 | 1.39e5 | 1.16e5 | – | 5440 | 5153 | inactive |
| CG11345 | 1 | 54384 | 71365 | – | 4672 | 4488 | inactive |
| QC (Glutaminyl cyclase) | 1 | 1.05e5 | 85728 | – | 5445 | 3808 | inactive |
| SA1 (Stromalin 1) | 1 | 88710 | 54464 | – | 4041 | 2172 | inactive |
| tbrd-2 | 1 | 62121 | 66118 | – | 1645 | 4233 | inactive |
| CG31463 | 1 | 62728 | 94434 | – | 2880 | 2572 | inactive |
| lncRNA:CR43270 (long non-coding RNA::CR43270) | 1 | 2.26e5 | – | – | 5248 | – | inactive |
| Cul6 (Cullin 6) | 1 | 90344 | 53472 | – | 3703 | 1824 | inactive |
| comm3 | 1 | 99818 | – | – | 7321 | 2954 | inactive |
| comm3 | 2 | 1.04e5 | – | – | 4584 | 3223 | inactive |
| comm3 | 3 | 1.08e5 | – | – | 6407 | 3511 | inactive |

Next part; the last 3 above are carried over.
| Target gene | dsRNA no. | firefly Hh reporter signal, replicate 1 | firefly Hh reporter signal, replicate 2 | firefly Hh reporter signal, replicate 3 | Renilla reference signal, replicate 1 | Renilla reference signal, replicate 2 | outcome |
| --- | --- | --- | --- | --- | --- | --- | --- |
| comm3 | 1 | 99818 | – | – | 7321 | 2954 | inactive |
| comm3 | 2 | 1.04e5 | – | – | 4584 | 3223 | inactive |
| comm3 | 3 | 1.08e5 | – | – | 6407 | 3511 | inactive |
| CG14448 | 1 | 77781 | 79720 | – | 2699 | 2279 | inactive |
| PIG-C (Phosphatidylinositol glycan anchor biosynthesis class C) | 1 | 54729 | 45462 | – | 1084 | 3297 | inactive |
| CG9150 | 1 | 1.14e5 | 37308 | – | 2681 | 3633 | inactive |
| CG31278 | 1 | 60384 | 1.14e5 | – | 2167 | 3025 | inactive |
| rpr (reaper) | 1 | 1.50e5 | – | – | 5328 | 4024 | inactive |
| CG4021 | 1 | 94009 | 69081 | – | 2864 | 7120 | inactive |
| CG9662 | 1 | 1.43e5 | 68629 | – | 3513 | 6576 | inactive |
| CG15147 | 1 | 1.20e5 | 6.65e5 | 78352 | 3219 | 39405 | inactive |
| CG15147 | 2 | 1.02e5 | 49286 | – | 2579 | 4501 | inactive |
| CG9173 | 1 | 83421 | 50230 | – | 3251 | 3613 | inactive |
| CG6753 | 1 | 1.23e5 | 1.60e5 | – | 4544 | 4489 | inactive |
| mip40 (Myb-interacting protein 40) | 1 | 1.05e5 | 81189 | – | 6342 | 4139 | inactive |
| syd (sunday driver) | 1 | 1.01e5 | 76325 | – | 4185 | 2976 | inactive |
| CG17140 + CG17139 | 1 | 74615 | 61408 | – | 2165 | 5688 | inactive |
| CG17140 + CG17139 | 2 | 1.15e5 | 74156 | – | 3037 | 6652 | inactive |
| CG16826 | 1 | 97328 | 56529 | – | 1987 | 5184 | inactive |
| Ac13E (Adenylyl cyclase 13E) | 1 | 88994 | 1.80e5 | – | 1655 | 7596 | inactive |
| et (eye transformer) | 1 | 88869 | 2.59e5 | – | 3312 | 11058 | inactive |
| CG5162 | 1 | 77035 | 2.09e5 | – | 1960 | 7899 | inactive |
| CG15912 | 1 | 86083 | 2.35e5 | – | 3419 | 8241 | inactive |
| Ack (Activated Cdc42 kinase) | 1 | 60901 | 39356 | – | 2136 | 3155 | inactive |
| Ccdc58 (Coiled-coil domain-containing 58) | 1 | 99584 | 68128 | – | 3921 | 2733 | inactive |
| CG7148 | 1 | 89984 | 59145 | – | 3952 | 2690 | inactive |
| CG7246 | 1 | 4.13e5 | 82778 | – | 4341 | 4341 | inactive |
| Cln3 | 1 | 84125 | – | – | 3803 | 2775 | inactive |
| CG9154 | 1 | 81499 | 67181 | – | 4278 | 3152 | inactive |
| subdued | 1 | 99346 | 62545 | – | 4153 | 2692 | inactive |
| CG6276 | 1 | 82644 | 60928 | – | 3105 | 2880 | inactive |
| meng (meng-po) | 1 | 85474 | 53126 | – | 2336 | 4793 | inactive |
| CG31041 | 1 | 48359 | 2.54e5 | – | 13181 | 6067 | inactive |
| rib (ribbon) | 1 | 89976 | 58230 | – | 5478 | 2681 | inactive |
